From PubChem BioAssay AID624297 (National Center for Advancing Translational Sciences (NCATS), 2012)
Where “and” joins values, the source holds several entries; their conditions need not be identical. Identical values can stand only once. The whole screen tested about 340,000 compounds, of which about 6,200 (1.8%) were called active. This list was built around the results that the source calls inconclusive (neither active nor inactive); the mix of calls is not that of the screen. Calls come from the whole dose curve; as a rule, active = well fitted activation curve with a large enough effect; inconclusive = small, poorly fitted or top-dose-only effect; inactive = no such curve, though single readings can be large or run the other way. Potencies of inconclusive entries are doubtful fits and often do not repeat.
Potency is the fitted concentration of half-maximal effect.

Test: A quantitative high throughput screen for small molecules that induce DNA re-replication in SW480 colon adenocarcinoma cells. For re-replication activation: % of control where 0% means no effect. Note: nearly all actives have a fitted effect of over 55% in size.
Conditions: Hoechst DNA content imaging, 48 h; re-replication activation: at 46.1 µM (top of the series)
How it was run: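 SW480 cells exposed to compounds for 48 hr at 37 C, 5% CO2, then Hoechst-stained 40 min. Nuclear DNA content imaged by fluorescence scanning (405 nm excitation, 500-530 nm emission); re-replication scored as increased high-intensity nuclei.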
In the case of `CCC(=O)OC1(c2ccccc2)C(C)CN(C)CC1C` (stereo not given), the Potency is reported as inconclusive: 0.0103 µM [activator, full curve, poor fit].
For `CCC1(O)C(=O)OCc2c1cc1n(c2=O)Cc2cc3cc(O)ccc3nc2-1` (stereo not given), the Potency was inconclusive: 0.0058 µM [activator, full curve, poor fit].
In the case of `COCCCn1c(-c2ccc(OC)cc2)cc(C(=O)NC2CCCCCCC2)c1C`, the Potency is reported as inconclusive: 29.1 µM [activator, single point].
With `CCC(=O)OC1(c2ccccc2)CCN(C)CC1C` (stereo not given) the Potency was “inactive”.
For `[Cl][Pt+2][Cl].[NH-]C1CCCCC1[NH-]` (stereo not given), the Potency was inconclusive: 3.55 µM [activator, single point].
With `O=C(C(=O)N1CCOCC1)c1cn(Cc2ccc(F)cc2)c2ccccc12` the Potency was inconclusive: 29.1 µM [activator, single point].
With `Cc1cccc(-n2c(O)c(/C=N/NC(=O)c3ccncc3)c(=O)[nH]c2=O)c1` the Potency was inconclusive: 9.2 µM [activator, partial curve, poor fit].
With `COc1ccc(CNCCc2ccc(Cl)cc2Cl)cc1` the Potency was inconclusive: 13 µM [activator, single point].
In the case of `CCOc1c(Cl)cc(CNCCc2c[nH]c3ccccc23)cc1OC`, the Potency is reported as inconclusive: 29.1 µM [activator, single point].
In the case of `COc1ccc2[nH]c(C)c(CCNCc3cccnc3)c2c1`, the Potency is reported as “inactive”.
For `Cc1nn(Cc2ccc(Cl)cc2Cl)c(Cl)c1C(=O)O`, the Potency was inconclusive: 0.651 µM [activator, partial curve, poor fit].
In the case of `CCN(CC)c1ccc(N=Cc2c(O)n(CCC3=CCCCC3)c(=O)[nH]c2=O)cc1`, the Potency is reported as inconclusive: 4.11 µM [activator, full curve].
With `CN(C)c1ccc(C(=O)c2ccc(N(C)C)cc2)cc1` the Potency was active: 5.17 µM.
For `CC(=O)C1C(N2CC2)CC2C3CC=C4CC(O)CCC4(C)C3CCC21C` (stereo not given), the Potency was active: 23.1 µM.
For `COc1ccc(CN2CCN(C(=O)COc3cccc(C)c3)CC2)c(OC)c1`, the Potency was inconclusive: 11.6 µM [activator, partial curve, poor fit].
With `O=C1NC(=O)N(Cc2ccco2)C(=O)/C1=C\c1ccc(-c2ccc(F)cc2)o1` the Potency was inconclusive: 14.6 µM [activator, partial curve, poor fit].
With `COc1ccc(C2CC(c3cccs3)=NN2c2nc(C)c(C(C)=O)s2)cc1OC` (stereo not given) the Potency was active: 14.6 µM.
With `CCCC[C@H](CN(N=O)[C@@H](Cc1ccccc1)CN(C)N=O)N(CCc1ccccc1)N=O` the Potency was inconclusive: 3.26 µM [activator, full curve, poor fit].
With `O=C(CCCN1CCC(n2c(=O)[nH]c3ccccc32)CC1)c1ccc(F)cc1` the Potency was “inactive”.
In the case of `CC(C)c1ccc2c(c1)C(N1CCNCC1)Cc1ccc(F)cc1S2` (stereo not given), the Potency is reported as inconclusive: 29.1 µM [activator, single point].
With `CCN1C(=O)C(=Cc2ccc(C)s2)C(=O)N(CC)C1=S` the Potency was inconclusive: 29.1 µM [activator, single point].
In the case of `N#CC(C#N)=NNc1ccc(-n2ccc(C(F)(F)F)n2)cc1`, the Potency is reported as inconclusive: 18.4 µM [activator, partial curve, poor fit].
For `O=c1cc(CN2CC=C(c3ccccc3)CC2)c2c(ccc3ccccc32)o1`, the Potency was “inactive”.
With `CCC1(CC)C(=O)NC(=O)NC1=O` the Potency was “inactive”.
With `Cn1nnc(CC[N+](C)(C)C)n1` the Potency was inconclusive: 0.13 µM [activator, full curve, poor fit].
In the case of `COc1ccc(CNCCc2c(C)[nH]c3ccc(OC(F)(F)F)cc23)c(OC)c1`, the Potency is reported as inconclusive: 16.4 µM [activator, single point].
With `C[C@]12O[C@H](C[C@]1(O)CO)n1c3ccccc3c3c4c(c5c6ccccc6n2c5c31)CNC4=O` the Potency was inconclusive: 0.473 µM [activator, full curve, poor fit].
In the case of `CCOc1ccc2nc(N3CCC(C(=O)N4CCC5(CC4)OCCO5)CC3)sc2c1`, the Potency is reported as “inactive”.
In the case of `O=C(NCCN1CCOCC1)c1ccc(Cl)nc1Cl`, the Potency is reported as “inactive”.
With `C[C@]12CC[C@H]3C(CCC4(O)CC(O)CC[C@]34C=O)C1=CC[C@H]2c1ccc(=O)oc1` (stereo not given in full) the re-replication activation was inconclusive: 22.4% [activator].
With `COCCNC(=O)c1c(N)n(CCC(C)C)c2nc3ccccc3nc12` the Potency was inconclusive: 3.66 µM [activator, partial curve, poor fit].
With `O=c1[nH]oc2c1CCNC2` the Potency was inconclusive: 0.891 µM [activator, single point].
For `c1ccc(CNC2CCCCCCC2)cc1` (tested in a mixture with another compound), the Potency was “inactive”.
For `C[C@]12CC[C@H]3[C@@H](CCC4=CC(=O)CC[C@@]43C)[C@@H]1CC[C@@H]2C(=O)CO`, the Potency was “inactive and inconclusive: 20.6 µM [activator, single point]”.
With `Cc1cc(OC(=O)CCNC(=O)OC(C)(C)C)c2c3c(c(=O)oc2c1)CCC3` the Potency was “inactive”.
For `COC(=O)C1=C(c2cccc(OC)c2OC)C[C@@H]2CC[C@H]1N2C(=O)NCc1cccc2ccccc12`, the Potency was “inactive”.
In the case of `Cn1ccc(NC(=O)CCl)n1`, the Potency is reported as “inactive”.
For `COc1ccc(OC)c(CN2CCCC(C(=O)c3sccc3C)C2)c1` (stereo not given), the Potency was “inactive”.
In the case of `CN1Cc2ccccc2-n2nncc2C1`, the Potency is reported as inconclusive: 0.82 µM [activator, full curve, poor fit].
With `c1ccc(SSc2ccccc2)cc1` the Potency was inconclusive: 0.164 µM [activator, full curve, poor fit].
With `CCCCN1CCC(O)(c2ccccc2)C(C(=O)c2ccccc2)C1` (stereo not given) the Potency was inconclusive: 29.1 µM [activator, single point].
With `O=C(c1cccc2ccccc12)C1CCCN(Cc2ccon2)C1` (stereo not given) the Potency was inconclusive: 29.1 µM [activator, single point].
For `O=Cc1c(C(=O)O)n(Cc2ccc(Cl)cc2)c2ccccc12`, the Potency was “inactive”.
With `Cc1ccc(OP(=O)(NC(C)c2ccccc2)Oc2ccc(C)cc2)cc1` (stereo not given) the Potency was inconclusive: 29.1 µM [activator, partial curve, poor fit].
In the case of `COc1ccc2c(c1O)-c1cccc3c1[C@@H](C2)N(C)CC3`, the Potency is reported as inconclusive: 35.5 µM [activator, single point].
